# The other results are listed elsewhere or left out.
# B1: Blon2355mut (Bifidobacterium longum) (protein)
# chain: MVQEPTLEWHVIPEPTNVEPLVGTCSLPLSGTVVEQRGADDAEAVFARQLVDDIKRVCGGRWQVASGEVQREVTLRTSPSLDDWSYVLEVSPDGVVITGSGFEGVRDGVQTLRQIIRQIGLTIPCMVIRDRPAFSTRGYYLDVTRGRVPSMAWLKSWVDRLCFYKYNQFQLYIEHTFQFNGLSEVWRGADPLTSSDILELDSYCAARGIELVPSVSTFGHHYTALRTRQLRDLGEFPEDADRPFSLIERMTHHTLNITDERSYEFSTSLIDELMPLFRSRKFNICANETFDLGKGRSKQESAKRGVGAMYADFVERLCRHVDDRGHDVMVWADVALEHPEIIDTLPKNITWLNWQYEPNVDDGTTAALADAGATQMVCPAVWCWNALIPRIDDAWNNITRMARHGRAHDVSGMLVTDWGDFGHVNDPRMSVPGMIFGAQQSWNPDAELSEVDMLSRISTIEYGDHTGSVVGALRGASAKGGFSWSDLVTYLELDDGRGGCNTEIVRVMGCLEAYRNDLPQSGQARLADARVSMLRTLRDSILAGRELNGKLDDAAKDITQLLRVAGDPSSAAVWSLAIDGQRLLNRVGLALLAAHGVVRQDEAGIDAAKLADELECWTEQYSRLWHEVSRQSELARIQHVVWRAADVLRSI
# Key:
# Test in all cases: glycan array binding signal (z-score within array); higher = stronger binding
# Conditions in all cases: glycan notation: IUPAC condensed, linker removed
# [1] = target: Fuc(a1-3)[Gal(b1-4)]Glc6S
# Outline: (§1)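 The binding signal is a Z-score computed within each array and averaged over linkers. Arrays of the same protein sequence at different concentrations or buffers were also averaged together. Data originate from 3228 arrays in the Consortium for Functional Glycomics database, kept only where the protein sequence was available.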
# [2] = target: Fuc(a1-3)[Gal(b1-4)]GlcNAc
# Outline: as §1
# [3] = target: Fuc(a1-3)[Gal(b1-4)]GlcNAc(b1-2)Man
# Outline: as §1
# [4] = target: Fuc(a1-3)[Gal(b1-4)]GlcNAc(b1-2)Man(a1-3)[Fuc(a1-3)[Gal(b1-4)]GlcNAc(b1-2)Man(a1-6)]Man(b1-4)GlcNAc(b1-4)GlcNAc
# Outline: as §1
# [5] = target: Fuc(a1-3)[Gal(b1-4)]GlcNAc(b1-2)Man(a1-3)[Fuc(a1-3)[Gal(b1-4)]GlcNAc(b1-2)Man(a1-6)]Man(b1-4)GlcNAc(b1-4)[Fuc(a1-6)]GlcNAc
# Outline: as §1
# [6] = target: Fuc(a1-3)[Gal(b1-4)]GlcNAc(b1-3)Gal(b1-3)[Fuc(a1-4)]GlcNAc
# Outline: as §1
# [7] = target: Fuc(a1-3)[Gal(b1-4)]GlcNAc(b1-3)GalNAc
# Outline: as §1
# [8] = target: Fuc(a1-3)[Gal(b1-4)]GlcNAc(b1-4)Gal(b1-4)[Fuc(a1-3)]GlcNAc
# Outline: as §1
# [9] = target: Fuc(a1-3)[Gal(b1-4)]GlcNAc(b1-4)Gal(b1-4)[Fuc(a1-3)]GlcNAc(b1-4)Gal(b1-4)[Fuc(a1-3)]GlcNAc
# Outline: as §1
# [10] = target: Fuc(a1-3)[Gal(b1-4)]GlcNAc(b1-6)GalNAc
# Outline: as §1
# [11] = target: Fuc(a1-3)[Gal(b1-4)]GlcNAc(b1-6)[Gal(b1-3)GlcNAc(b1-3)]Gal(b1-4)Glc
# Outline: as §1
# [12] = target: Fuc(a1-3)[Gal(b1-4)]GlcNAc6S
# Outline: as §1
# [13] = target: Fuc(a1-3)[Gal3S(b1-4)]Glc
# Outline: as §1
# [14] = target: Fuc(a1-3)[Gal3S(b1-4)]GlcNAc
# Outline: as §1
# [15] = target: Fuc(a1-3)[Gal3S(b1-4)]GlcNAc6S
# Outline: as §1
# [16] = target: Fuc(a1-3)[GalNAc(b1-4)]GlcNAc
# Outline: as §1
# [17] = target: Fuc(a1-3)[GalNAc(b1-4)]GlcNAc6S
# Outline: as §1
# Fuc(a1-4)GlcNAc = target: Fuc(a1-4)GlcNAc
# Outline: as §1
# Fuc(b1-3)GlcNAc = target: Fuc(b1-3)GlcNAc
# Outline: as §1
# Gal(a1-2)Gal = target: Gal(a1-2)Gal
# Outline: as §1
# Gal(a1-3)Gal = target: Gal(a1-3)Gal
# Outline: as §1
# Gal(a1-3)Gal(b1-3)GlcNAc = target: Gal(a1-3)Gal(b1-3)GlcNAc
# Outline: as §1
# [18] = target: Gal(a1-3)Gal(b1-3)GlcNAc(b1-2)Man
# Outline: as §1
# [19] = target: Gal(a1-3)Gal(b1-3)GlcNAc(b1-2)Man(a1-3)[Gal(a1-3)Gal(b1-3)GlcNAc(b1-2)Man(a1-6)]Man(b1-4)GlcNAc(b1-4)GlcNAc
# Outline: as §1
# [20] = target: Gal(a1-3)Gal(b1-3)GlcNAc(b1-3)GalNAc
# Outline: as §1
# [21] = target: Gal(a1-3)Gal(b1-3)GlcNAc(b1-6)GalNAc
# Outline: as §1
# [22] = target: Gal(a1-3)Gal(b1-3)[Fuc(a1-4)]GlcNAc(b1-2)Man(a1-3)[Gal(a1-3)Gal(b1-3)[Fuc(a1-4)]GlcNAc(b1-2)Man(a1-6)]Man(b1-4)GlcNAc(b1-4)GlcNAc
# Outline: as §1
# Gal(a1-3)Gal(b1-4)Glc = target: Gal(a1-3)Gal(b1-4)Glc
# Outline: as §1
# Gal(a1-3)Gal(b1-4)GlcNAc = target: Gal(a1-3)Gal(b1-4)GlcNAc
# Outline: as §1
# [23] = target: Gal(a1-3)Gal(b1-4)GlcNAc(b1-2)Man
# Outline: as §1
binder,measurement,setting,value
B1,glycan array binding signal (z-score),[1],1.49
same,glycan array binding signal (z-score),[2],0.254
same,glycan array binding signal (z-score),[3],-0.693
same,glycan array binding signal (z-score),[4],-0.38
same,glycan array binding signal (z-score),[5],-0.128
same,glycan array binding signal (z-score),[6],-0.794
same,glycan array binding signal (z-score),[7],-0.3
same,glycan array binding signal (z-score),[8],0.072
same,glycan array binding signal (z-score),[9],-0.166
same,glycan array binding signal (z-score),[10],-0.427
same,glycan array binding signal (z-score),[11],-0.166
same,glycan array binding signal (z-score),[12],0.994
same,glycan array binding signal (z-score),[13],-0.089
same,glycan array binding signal (z-score),[14],1.44
same,glycan array binding signal (z-score),[15],0.088
same,glycan array binding signal (z-score),[16],3.72
same,glycan array binding signal (z-score),[17],0.203
same,glycan array binding signal (z-score),Fuc(a1-4)GlcNAc,-0.82
same,glycan array binding signal (z-score),Fuc(b1-3)GlcNAc,-1.07
same,glycan array binding signal (z-score),Gal(a1-2)Gal,-0.108
same,glycan array binding signal (z-score),Gal(a1-3)Gal,-0.729
same,glycan array binding signal (z-score),Gal(a1-3)Gal(b1-3)GlcNAc,-1.19
same,glycan array binding signal (z-score),[18],2.29
same,glycan array binding signal (z-score),[19],0.57
same,glycan array binding signal (z-score),[20],-0.884
same,glycan array binding signal (z-score),[21],-1
same,glycan array binding signal (z-score),[22],-0.814
same,glycan array binding signal (z-score),Gal(a1-3)Gal(b1-4)Glc,-0.136
same,glycan array binding signal (z-score),Gal(a1-3)Gal(b1-4)GlcNAc,-0.086
same,glycan array binding signal (z-score),[23],0.209

# Two entries from above, with tabs:
binder	measurement	setting	value
B1	glycan array binding signal (z-score)	[15]	0.088
same	glycan array binding signal (z-score)	[16]	3.72

# — the supplement of paper PMC8728848
